# Test results published in the supplement of paper PMC3334620.
# Whole data set: some 33,000 sequences, median “E-score (-0.5 to 0.5)” near -0.0014, cut for the highest 2% near 0.25. The list shows a part of the results.
# Biological target: T1, Cad1 (UniProt P24813)
# T1 sequence: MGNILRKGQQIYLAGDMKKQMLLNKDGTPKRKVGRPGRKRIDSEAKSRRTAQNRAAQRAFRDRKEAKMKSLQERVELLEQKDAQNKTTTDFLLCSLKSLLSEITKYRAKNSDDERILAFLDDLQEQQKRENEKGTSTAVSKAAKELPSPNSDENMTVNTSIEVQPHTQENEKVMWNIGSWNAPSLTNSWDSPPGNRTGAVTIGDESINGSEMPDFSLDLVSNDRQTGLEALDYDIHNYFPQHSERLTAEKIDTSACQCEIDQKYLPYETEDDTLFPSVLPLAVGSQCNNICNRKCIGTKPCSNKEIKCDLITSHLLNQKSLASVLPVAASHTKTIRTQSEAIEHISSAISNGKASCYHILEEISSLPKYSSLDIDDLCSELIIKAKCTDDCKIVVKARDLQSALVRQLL
# Test: PBM E-score (8-mer binding enrichment) (E-score (-0.5 to 0.5)); higher = stronger / more preferred TF binding
# Settings: protein concentration: 100 nM; construct: GST-full length
# Method in brief: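 GST-tagged yeast TFs (full-length or DNA-binding domain) were made by PURExpress in vitro transcription/translation and applied at about 100-200 nM to universal all-10-mer Agilent arrays. The arrays were made double-stranded by primer extension, on fresh or once-stripped slides. Bound protein was detected with fluorescent anti-GST, and scans were normalised with masliner. Each ungapped eight-base word, pooled with its reverse complement, received an E-score (modified Wilcoxon-Mann-Whitney statistic) from the Universal PBM Analysis Suite.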
row,Sequence,PBM E-score
1,ATAGGTCC,0.166
2,AACGTAAA,0.0278
3,GTCTTTTA,-0.185
4,CGTCCGAA,0.1
5,AACGGCGC,0.0704
6,CACGGCAG,0.00744
7,AGATTTTC,0.122
8,CGTCAGAC,0.0191
9,ACAGGGCC,-0.00762
10,AACCGTTG,0.0938
11,CGTGGACA,-0.0853
12,ACGGTCGA,-0.117
13,CGCATGCG,0.152
14,AAAACTGC,0.007
15,CTAGGAAC,-0.146
16,CTACAGCC,-0.242
17,AAAGCCGT,0.0224
18,CTGAATGA,0.0667
19,GCACGGGC,-0.216
20,ATCTTTTA,0.0275
21,CAGACCGG,-0.12
22,CTGAATCA,0.11
23,GCATGGAC,-0.0417
24,GTTGTTTA,0.145
25,AGGCCAAC,0.0871

row,Sequence,PBM E-score
1,CGAGACAC,-0.197
2,ACTCTAGA,0.00207
3,ATCTTGGA,-0.0402
4,ATAAACGA,0.144
5,CAACGACG,0.0367
6,AGCGTGTG,0.162
7,GCGGCCGC,0.175
8,ACGAAGTC,-0.0674
9,ACACTCAT,0.0832
10,CCCTAATC,-0.076
11,ACGAAAGG,0.0577
12,CATGCCCA,-0.327
13,GCGGTTAA,-0.0387
14,GACCTAGC,0.0662
15,CTCGTGAA,-0.0632
16,CCATCGGA,-0.239
17,CACGAGAA,-0.106
18,GCTTTTAC,-0.0563
19,GTGAACGA,0.0597
20,ACTTATCT,0.0827
21,ACGGTTTA,0.0206
22,AGAGGCCG,-0.24
23,ATATAAAA,0.0859
24,CCGGCACA,0.0937
25,GCATAACA,0.0962

# Some values from the list:
# For PBM E-score, AGAGGCCG has the entry -0.24
# For PBM E-score, GCGGTTAA has the entry -0.0387
# For PBM E-score, AGCGTGTG has the entry 0.162
# For PBM E-score, CCATCGGA has the entry -0.239
# For PBM E-score, CCCTAATC has the entry -0.076
# For PBM E-score, CACGAGAA has the entry -0.106
# For PBM E-score, CAACGACG has the entry 0.0367

# More entries.

row,Sequence,PBM E-score
1,CGATCGAG,0.142
2,ATTGATGC,0.153
3,AAGGAGCC,-0.283
4,AAACTTTC,0.00621
5,AGGGGCGC,-0.103
6,ACAGGCGT,-0.0624
7,ATCTTTAA,0.109
8,ACTTATAT,0.202
9,CGGTGTTC,0.0183
10,AGGAGGAG,-0.284
11,CTTTGATA,0.142
12,CAAAGCAG,-0.0243
13,CCATGCTC,-0.317
14,CAAAAGAA,0.186
15,CTCTGTGC,-0.056
16,CAAGATTA,0.125
17,CTTGTCTC,-0.0523
18,AAAGCCCC,-0.269
19,CAGAGAAA,0.158
20,ATCGTGTC,0.03
21,ACCAGTCG,0.00162
22,AATTTACG,0.19
23,AAGTCGGC,-0.121
24,GAGATGCA,-0.161
25,ATGCTGGG,-0.0707

# Nothing new here: entries from further up.
row,Sequence,PBM E-score
12,CAAAGCAG,-0.0243
13,CCATGCTC,-0.317
14,CAAAAGAA,0.186
15,CTCTGTGC,-0.056
16,CAAGATTA,0.125

# Remaining list, next part

row,Sequence,PBM E-score
1,AGGCGAAT,-0.108
2,GGTACGAA,0.00468
3,GCTCACAC,0.0652
4,CAATCCCA,-0.217
5,ATACATGG,0.0689
6,CGCTTGAA,0.179
7,AAACAATC,0.116
8,ATCAGAGG,-0.0692
9,ATTAATGA,0.306
10,ACGTGAGG,0.0639
11,TAAAGGTA,-0.0464
12,CACTAAAG,-0.00408
13,CTTTGATC,0.0608
14,ATTACAAC,0.139
15,ATACCTCA,-0.0623
16,AAGACAAA,0.117
17,CAGCGGAC,0.0365
18,ACTTCCTC,-0.196
19,CAGCCCTG,-0.178
20,CTGGATTC,-0.171
21,CGTTCCGC,0.13
22,AGCTGCCA,0.0461
23,CAAACTAC,-0.0121
24,GCTCCCAC,-0.113
25,ATTTTCAA,0.162

row,Sequence,PBM E-score
1,ACATAGAA,0.0216
2,CCCACTTA,0.187
3,CGCAACAG,-0.00109
4,CCAGATCG,-0.126
5,AGTACACA,0.0961
6,GCTTTCGA,-0.246
7,CTGGTTTA,-0.0899
8,CACCTAAC,0.014
9,TCTCGACA,0.0999
10,ATTGTTTC,0.183
11,ATGTCAGG,-0.0849
12,CCCGAGGA,-0.0293
13,CAACTGTA,0.0739
14,CCACTTCG,-0.0941
15,AGAGAAAG,-0.0812
16,AACAGCTG,0.204
17,AACTGCAC,0.135
18,GCTGAAGA,0.00892
19,CGACGCAG,-0.075
20,TCCCGTAA,-0.012
21,ATTTGCTC,-0.19
22,AGATTGTG,0.0423
23,CAGCTACC,0.0165
24,ATTGCTCA,0.199
25,CAATCCGG,0.148

row,Sequence,PBM E-score
1,CGGGTCCC,-0.328
2,GTCCTCAA,0.0648
3,AATTCTGA,0.131
4,TAAGCACA,0.295
5,GTGAGGGA,-0.258
6,ATACACTC,-0.038
7,CTCAAGGC,-0.0857
8,CAACGTCG,0.138
9,GACGCGGA,-0.00342
10,ATGTGCTC,0.101
11,ATCCCATG,-0.157
12,CCGCATAC,-0.107
13,GGTCAGCA,0.191
14,GCGTATAC,0.118
15,ATCCAGCA,0.0328
16,CGTTGTAC,0.117
17,AGGAGAAC,-0.262
18,ATGGAGTA,-0.031
19,CTAATTCA,0.0862
20,CGCATGTA,-0.195
21,CGTACAAG,-0.263
22,ATGTCGTG,-0.101
23,AGTTATAA,-0.037
24,CAGTGAAA,0.2
25,ATGTCTGA,0.129

row,Sequence,PBM E-score
1,AAGCTCGA,0.263
2,ACTGTTAC,-0.0231
3,AGTTATGC,0.0711
4,ACAGCACC,-0.154
5,ACCGCCTA,-0.171
6,CCATTTTC,0.1
7,CATATTAA,0.272
8,ACCAAGCA,0.0367
9,ACAGCCGG,0.0334
10,GGTTTGGA,-0.0883
11,TGACTCAA,-0.0491
12,ATCCAAAT,0.0959
13,GAAAACCA,-0.0585
14,ATCGCATA,0.0254
15,ATGGGATA,-0.0986
16,ACTGCTCA,0.138
17,GGTCCTTA,-0.0018
18,AGATTCCG,0.124
19,GCGGGCCC,-0.157
20,CCCTCTTC,-0.356
21,ATTCCCAA,0.159
22,ACATTAAC,0.137
